PubChem BioAssay AID1259254 | NCATS | 2017
Test: 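Gene knock-downs that lead to re-replication, shown by excess G2 DNA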 (primary screen). System: human HCT116 colorectal cancer cells. Knock-down reagent: single siRNA against human genes. Duration: 3 days. Measured: 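Nuclei stained with Hoechst and imaged; cell-cycle phase assigned by DNA content; G2 share scaled per plate, non-targeting siRNA 0%, GMNN siRNA 100%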. Direction: G2 robust z-score and G2 cells, % of GMNN control: higher = more G2 cells, more excess DNA replication; raw share of cells in G2: higher = larger share of cells with G2 DNA content. Call rule: 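Active siRNAs have a G2 robust z of 5 or more median absolute deviations over the median, which in these data means about 38% or higher of GMNN control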.
The deposit covers about 59,000 reagents; this is a random part of them. In the full data, about 1,550 (2.6%) got an active call. 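G2 share is only a proxy for re-replication; each gene was hit by three separate siRNAs, and active genes were retested.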 Raw values vary from plate to plate and are shown uncorrected. Reagent sequences are not shown. Not given: the amount of reagent.

no.	gene	PubChem SID	G2 robust z-score	G2 cells, % of GMNN control	raw share of cells in G2 (%)	Outcome
1	NDUFA2	SID160731270	0.725	8.07	5.86	inactive
2	NDUFA2	SID160777836	-0.533	-0.785	5.16	inactive
3	NDUFA2	SID160777837	-0.546	-0.875	5.02	inactive
4	PTK2B	SID160730781	-0.911	-3.44	4.25	inactive
5	PTK2B	SID160763746	0.117	3.79	6.86	inactive
6	PTK2B	SID160763765	-0.291	0.917	4.35	inactive
7	TLE4	SID160718112	3.8	29.7	18.3	inactive
8	TLE4	SID160718113	0.632	7.42	6.83	inactive
9	TLE4	SID160718114	-0.683	-1.84	2.7	inactive
10	SMIM30	SID160767266	-0.0864	2.36	4.67	inactive
11	SMIM30	SID160767267	-1.01	-4.11	1.89	inactive
12	SMIM30	SID160767268	0.759	8.31	8.24	inactive
13	MICOS10	SID160767811	-0.357	0.457	3.8	inactive
14	MICOS10	SID160767812	-0.979	-3.92	1.93	inactive
15	MICOS10	SID160767813	-0.186	1.66	3.68	inactive

5 of these entries, reformatted.
{"gene":"PTK2B","PubChem SID":"SID160763765","G2 robust z-score":-0.291,"G2 cells, % of GMNN control":0.917,"raw share of cells in G2 (%)":4.35,"Outcome":"inactive"}
{"gene":"TLE4","PubChem SID":"SID160718112","G2 robust z-score":3.8,"G2 cells, % of GMNN control":29.7,"raw share of cells in G2 (%)":18.3,"Outcome":"inactive"}
{"gene":"TLE4","PubChem SID":"SID160718113","G2 robust z-score":0.632,"G2 cells, % of GMNN control":7.42,"raw share of cells in G2 (%)":6.83,"Outcome":"inactive"}
{"gene":"TLE4","PubChem SID":"SID160718114","G2 robust z-score":-0.683,"G2 cells, % of GMNN control":-1.84,"raw share of cells in G2 (%)":2.7,"Outcome":"inactive"}
{"gene":"SMIM30","PubChem SID":"SID160767266","G2 robust z-score":-0.0864,"G2 cells, % of GMNN control":2.36,"raw share of cells in G2 (%)":4.67,"Outcome":"inactive"}

More results follow:
no.	gene	PubChem SID	G2 robust z-score	G2 cells, % of GMNN control	raw share of cells in G2 (%)	Outcome
16	EIF2AK3	SID160722242	1.14	11	9.02	inactive
17	EIF2AK3	SID160722243	0.385	5.67	7.25	inactive
18	EIF2AK3	SID160722244	-0.575	-1.08	3.34	inactive
19	GEN1	SID160732990	-0.193	1.61	3.76	inactive
20	GEN1	SID160733138	-0.719	-2.09	3.35	inactive
21	GEN1	SID160763459	8.34	61.6	26.1	active
22	GEN1	SID160763460	-0.398	0.167	3.11	inactive
23	GEN1	SID160765073	0.0155	3.08	5.04	inactive
24	GEN1	SID160765074	-0.181	1.7	4	inactive
25	MYCN	SID160777633	1.58	14.1	10.8	inactive
26	MYCN	SID160777634	-0.24	1.28	5.98	inactive
27	MYCN	SID160777635	-0.762	-2.39	2.41	inactive
28	PHYHD1	SID160762189	0.0891	3.59	6.21	inactive
29	PHYHD1	SID160762190	4.71	36.1	23.2	inactive
30	PHYHD1	SID160762191	-0.983	-3.95	3.26	inactive
